According to patent publication US8629241B2 (The University of Queensland, priority 2004, dated 2014):

Tests used:
[1] = general procedure: Fmoc solid-phase peptide synthesis; Rink Amide MBHA; HBTU/DIPEA; BOP/DIPEA for cyclisation and fragment coupling; conditions: whole synthesis
[2] = general procedure: Fmoc solid-phase peptide synthesis; trityl chloride resin; HBTU/DIPEA; BOP/DIPEA for cyclisation and fragment coupling; conditions: whole synthesis, scale 1.16 mmol
[3] = general procedure: Fmoc solid-phase peptide synthesis; Rink Amide MBHA resin; trityl chloride resin; HBTU/DIPEA; BOP/DIPEA for cyclisation and fragment coupling

Substance	isolated yield [1]	step yield [3]	further results
Ac(KARAD)n-NH2 where n=3 (KARADKARADKARAD; N-acetyl, C-amide)	Yield 30% (isolated)		
Boc-(cyclo-1-5)-KAR(Pbf)AD-OH			crude yield [2]: Yield 50%
NH2-(cyclo-1-5)-KARAD-NH2 (C-amide, cyclized 1-5)			isolated yield ([1]; scale 1.56 mmol): Yield 30% (isolated)
PEPTIDE1{[ac].K.A.R.A.D.K.A.R.A.D.[am]}$$$$V2.0	Yield 20% (isolated)		
PEPTIDE1{[ac].K.A.R.A.D.K.A.R.A.D.[am]}$PEPTIDE1,PEPTIDE1,2:R3-6:R3|PEPTIDE1,PEPTIDE1,7:R3-11:R3$$$V2.0		10% isolated	
cyclo(1-5, 6-10, 11-15)-Ac-[KARADKARADKARAD]-NH2. (N-acetyl, C-amide, three lactam cyclizations)		5.5% (isolated)	

For part of these data: Some peptides are written in HELM: one residue between dots, names in brackets for other building blocks, links after the first $.
